According to article doi:10.1101/2021.10.04.463067:
Like-named read-outs stand apart in the source and are kept apart here. These are yes or no findings as the source states them, for the method shown. Binding seen in cells or lysates may run through a third protein. Some binding calls cover weakened binding; strength is not graded here. For part of these data: Tags and fused reporters may be left off the sequences shown. Values belong to the molecule of their own block, whether it stands above or below them.

Chains of the proteins cited; added tags and fusions are not shown. Lines headed by an entry give the natural chain unless they say otherwise; changes in a name come on top.
UniProt Q9UI95: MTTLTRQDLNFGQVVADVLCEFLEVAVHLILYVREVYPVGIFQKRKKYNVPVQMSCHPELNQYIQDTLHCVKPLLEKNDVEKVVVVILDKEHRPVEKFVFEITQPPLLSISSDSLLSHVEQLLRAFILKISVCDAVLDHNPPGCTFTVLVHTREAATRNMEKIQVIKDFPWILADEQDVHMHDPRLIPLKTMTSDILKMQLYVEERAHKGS

Tests used:
Assay in all cases: co-IP
GFP-SHLD3 = molecular target: T1, GFP-SHLD3 (UniProt Q6ZNX1)
T1 sequence: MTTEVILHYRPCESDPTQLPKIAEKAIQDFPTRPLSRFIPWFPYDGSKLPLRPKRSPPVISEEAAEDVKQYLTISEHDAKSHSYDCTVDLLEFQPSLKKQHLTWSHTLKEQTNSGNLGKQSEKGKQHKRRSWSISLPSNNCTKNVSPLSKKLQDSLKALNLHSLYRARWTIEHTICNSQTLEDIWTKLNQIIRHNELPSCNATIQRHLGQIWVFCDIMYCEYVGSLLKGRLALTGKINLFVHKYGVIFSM

[1] = molecular target: T2, GFP-CHAMP1 wild-type (CHAMP1-Full Length) (UniProt Q96JM3)
T2 sequence: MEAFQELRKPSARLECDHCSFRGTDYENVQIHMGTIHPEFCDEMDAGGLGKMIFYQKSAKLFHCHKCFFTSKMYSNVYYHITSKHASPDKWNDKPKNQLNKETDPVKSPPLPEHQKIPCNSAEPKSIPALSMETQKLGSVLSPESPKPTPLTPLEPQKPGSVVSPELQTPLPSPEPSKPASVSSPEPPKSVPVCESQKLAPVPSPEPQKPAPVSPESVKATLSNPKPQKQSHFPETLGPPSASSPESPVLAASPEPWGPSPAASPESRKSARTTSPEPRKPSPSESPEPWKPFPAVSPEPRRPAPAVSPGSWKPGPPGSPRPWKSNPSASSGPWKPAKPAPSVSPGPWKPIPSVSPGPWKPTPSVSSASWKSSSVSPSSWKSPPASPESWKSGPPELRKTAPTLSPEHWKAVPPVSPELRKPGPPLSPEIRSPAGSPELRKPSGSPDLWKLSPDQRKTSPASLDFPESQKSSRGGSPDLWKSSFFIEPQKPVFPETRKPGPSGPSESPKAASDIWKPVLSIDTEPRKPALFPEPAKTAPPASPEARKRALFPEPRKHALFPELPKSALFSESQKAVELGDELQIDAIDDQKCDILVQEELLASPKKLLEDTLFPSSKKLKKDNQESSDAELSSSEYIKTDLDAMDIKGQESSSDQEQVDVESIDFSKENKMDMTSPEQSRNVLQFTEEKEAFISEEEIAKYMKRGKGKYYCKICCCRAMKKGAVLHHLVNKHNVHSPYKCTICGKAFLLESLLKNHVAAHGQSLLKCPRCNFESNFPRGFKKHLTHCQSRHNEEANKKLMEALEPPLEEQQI

[2] = molecular target: T3, GFP-CHAMP1-2A mutant (W334A/K335A) (UniProt Q96JM3)
T3 sequence: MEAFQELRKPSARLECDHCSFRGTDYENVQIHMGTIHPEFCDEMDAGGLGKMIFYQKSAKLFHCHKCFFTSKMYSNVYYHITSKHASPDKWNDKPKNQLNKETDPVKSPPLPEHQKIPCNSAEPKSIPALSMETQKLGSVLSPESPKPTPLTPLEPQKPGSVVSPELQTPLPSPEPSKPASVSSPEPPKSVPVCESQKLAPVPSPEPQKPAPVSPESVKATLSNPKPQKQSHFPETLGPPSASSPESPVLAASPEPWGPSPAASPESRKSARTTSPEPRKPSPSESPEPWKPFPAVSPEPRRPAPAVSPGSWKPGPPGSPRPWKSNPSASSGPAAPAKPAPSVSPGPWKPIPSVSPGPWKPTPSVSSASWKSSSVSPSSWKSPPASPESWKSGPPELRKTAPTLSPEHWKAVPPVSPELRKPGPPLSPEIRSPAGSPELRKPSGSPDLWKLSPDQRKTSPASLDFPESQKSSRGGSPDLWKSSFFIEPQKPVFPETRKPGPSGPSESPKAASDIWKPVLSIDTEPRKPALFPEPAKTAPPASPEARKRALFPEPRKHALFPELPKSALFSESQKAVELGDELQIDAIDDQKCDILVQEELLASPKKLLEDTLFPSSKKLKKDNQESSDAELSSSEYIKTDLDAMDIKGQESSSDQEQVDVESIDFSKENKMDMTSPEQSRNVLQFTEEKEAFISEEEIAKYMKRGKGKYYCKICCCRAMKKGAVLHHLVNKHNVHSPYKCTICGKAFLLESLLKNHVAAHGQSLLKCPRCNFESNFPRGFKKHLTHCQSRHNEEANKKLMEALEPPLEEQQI

[3] = molecular target: T2, GFP-CHAMP1 wild-type (CHAMP1-Full Length); remark: listed apart in the source
Flag-REV7 wild type = Flag-REV7 wild type (UniProt Q9UI95)
Flag-REV7-T103A = Flag-REV7-T103A (UniProt Q9UI95)
GFP-REV7 = GFP-REV7 (UniProt Q9UI95)
[4] = molecular target: endogenous REV7 (human (endogenous in U2OS and HEK293T)) (UniProt Q9UI95)
[5] = molecular target: T2, GFP-CHAMP1 wild-type (CHAMP1-Full Length); remark: listed apart in the source

Molecule: Flag-REV7-T103A (from UniProt Q9UI95 1-211)
binding (GFP-SHLD3): binds

Molecule: endogenous REV7 (from UniProt Q9UI95 1-211)
binding [1]: binds
binding [2]: no binding
binding (GFP-SHLD3): binds
binding [3]: binds

The remaining lines, values ahead:

binding (GFP-SHLD3): binds
Molecule: Flag-REV7 wild type (from UniProt Q9UI95 1-211)

binding (Flag-REV7 wild type): binds
binding (Flag-REV7-T103A): binds
binding (GFP-REV7): binds
binding [4]: binds
B1: endogenous CHAMP1 (protein, UniProt Q96JM3 1-812)
chain: MEAFQELRKPSARLECDHCSFRGTDYENVQIHMGTIHPEFCDEMDAGGLGKMIFYQKSAKLFHCHKCFFTSKMYSNVYYHITSKHASPDKWNDKPKNQLNKETDPVKSPPLPEHQKIPCNSAEPKSIPALSMETQKLGSVLSPESPKPTPLTPLEPQKPGSVVSPELQTPLPSPEPSKPASVSSPEPPKSVPVCESQKLAPVPSPEPQKPAPVSPESVKATLSNPKPQKQSHFPETLGPPSASSPESPVLAASPEPWGPSPAASPESRKSARTTSPEPRKPSPSESPEPWKPFPAVSPEPRRPAPAVSPGSWKPGPPGSPRPWKSNPSASSGPWKPAKPAPSVSPGPWKPIPSVSPGPWKPTPSVSSASWKSSSVSPSSWKSPPASPESWKSGPPELRKTAPTLSPEHWKAVPPVSPELRKPGPPLSPEIRSPAGSPELRKPSGSPDLWKLSPDQRKTSPASLDFPESQKSSRGGSPDLWKSSFFIEPQKPVFPETRKPGPSGPSESPKAASDIWKPVLSIDTEPRKPALFPEPAKTAPPASPEARKRALFPEPRKHALFPELPKSALFSESQKAVELGDELQIDAIDDQKCDILVQEELLASPKKLLEDTLFPSSKKLKKDNQESSDAELSSSEYIKTDLDAMDIKGQESSSDQEQVDVESIDFSKENKMDMTSPEQSRNVLQFTEEKEAFISEEEIAKYMKRGKGKYYCKICCCRAMKKGAVLHHLVNKHNVHSPYKCTICGKAFLLESLLKNHVAAHGQSLLKCPRCNFESNFPRGFKKHLTHCQSRHNEEANKKLMEALEPPLEEQQI

binding [5]: binds
binding (GFP-REV7): binds
B2: endogenous POGZ (protein, UniProt Q7Z3K3 1-1410)
chain: MADTDLFMECEEEELEPWQKISDVIEDSVVEDYNSVDKTTTVSVSQQPVSAPVPIAAHASVAGHLSTSTTVSSSGAQNSDSTKKTLVTLIANNNAGNPLVQQGGQPLILTQNPAPGLGTMVTQPVLRPVQVMQNANHVTSSPVASQPIFITTQGFPVRNVRPVQNAMNQVGIVLNVQQGQTVRPITLVPAPGTQFVKPTVGVPQVFSQMTPVRPGSTMPVRPTTNTFTTVIPATLTIRSTVPQSQSQQTKSTPSTSTTPTATQPTSLGQLAVQSPGQSNQTTNPKLAPSFPSPPAVSIASFVTVKRPGVTGENSNEVAKLVNTLNTIPSLGQSPGPVVVSNNSSAHGSQRTSGPESSMKVTSSIPVFDLQDGGRKICPRCNAQFRVTEALRGHMCYCCPEMVEYQKKGKSLDSEPSVPSAAKPPSPEKTAPVASTPSSTPIPALSPPTKVPEPNENVGDAVQTKLIMLVDDFYYGRDGGKVAQLTNFPKVATSFRCPHCTKRLKNNIRFMNHMKHHVELDQQNGEVDGHTICQHCYRQFSTPFQLQCHLENVHSPYESTTKCKICEWAFESEPLFLQHMKDTHKPGEMPYVCQVCQYRSSLYSEVDVHFRMIHEDTRHLLCPYCLKVFKNGNAFQQHYMRHQKRNVYHCNKCRLQFLFAKDKIEHKLQHHKTFRKPKQLEGLKPGTKVTIRASRGQPRTVPVSSNDTPPSALQEAAPLTSSMDPLPVFLYPPVQRSIQKRAVRKMSVMGRQTCLECSFEIPDFPNHFPTYVHCSLCRYSTCCSRAYANHMINNHVPRKSPKYLALFKNSVSGIKLACTSCTFVTSVGDAMAKHLVFNPSHRSSSILPRGLTWIAHSRHGQTRDRVHDRNVKNMYPPPSFPTNKAATVKSAGATPAEPEELLTPLAPALPSPASTATPPPTPTHPQALALPPLATEGAECLNVDDQDEGSPVTQEPELASGGGGSGGVGKKEQLSVKKLRVVLFALCCNTEQAAEHFRNPQRRIRRWLRRFQASQGENLEGKYLSFEAEEKLAEWVLTQREQQLPVNEETLFQKATKIGRSLEGGFKISYEWAVRFMLRHHLTPHARRAVAHTLPKDVAENAGLFIDFVQRQIHNQDLPLSMIVAIDEISLFLDTEVLSSDDRKENALQTVGTGEPWCDVVLAILADGTVLPTLVFYRGQMDQPANMPDSILLEAKESGYSDDEIMELWSTRVWQKHTACQRSKGMLVMDCHRTHLSEEVLAMLSASSTLPAVVPAGCSSKIQPLDVCIKRTVKNFLHKKWKEQAREMADTACDSDVLLQLVLVWLGEVLGVIGDCPELVQRSFLVASVLPGPDGNINSPTRNADMQEELIASLEEQLKLSGEHSESSTPRPRSSPEETIEPESLHQLFEGESETESFYGFEEADLDLMEI
